The values below come from paper PMC12516131.

The target in assay [1] is T1, MAP65-3–mCherry–8×His (Arabidopsis thaliana) (UniProt Q9FHM4).
T1 sequence: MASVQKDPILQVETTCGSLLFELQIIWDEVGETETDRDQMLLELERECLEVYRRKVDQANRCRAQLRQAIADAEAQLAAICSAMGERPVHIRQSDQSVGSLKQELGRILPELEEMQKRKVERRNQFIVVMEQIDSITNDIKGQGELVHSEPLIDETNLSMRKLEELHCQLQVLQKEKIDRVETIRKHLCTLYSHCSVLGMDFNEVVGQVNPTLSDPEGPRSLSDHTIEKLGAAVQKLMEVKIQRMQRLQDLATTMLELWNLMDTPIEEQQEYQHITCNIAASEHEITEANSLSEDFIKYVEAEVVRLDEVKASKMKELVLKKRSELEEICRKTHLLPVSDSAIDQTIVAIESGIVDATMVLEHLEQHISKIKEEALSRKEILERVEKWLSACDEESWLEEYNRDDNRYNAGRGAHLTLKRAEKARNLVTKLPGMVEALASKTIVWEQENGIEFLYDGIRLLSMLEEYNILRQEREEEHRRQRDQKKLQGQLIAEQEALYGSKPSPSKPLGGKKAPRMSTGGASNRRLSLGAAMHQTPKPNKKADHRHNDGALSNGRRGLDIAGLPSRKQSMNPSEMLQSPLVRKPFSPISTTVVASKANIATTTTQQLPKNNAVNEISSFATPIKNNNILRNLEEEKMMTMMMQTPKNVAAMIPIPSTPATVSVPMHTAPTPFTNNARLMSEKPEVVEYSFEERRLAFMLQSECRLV
Kind of assay: TIRF microscopy microtubule binding assay; 20 nM eGFP–POK2 fragment mixed with MAP65-3–mCherry (0.1–20 nM) in the reaction buffer on unlabelled stabilised microtubules (IRM); ionic strength 170 mM and 70 mM; dual-colour TIRF; both purified.

The target in assay [2] is T1, MAP65-3–mCherry–8×His (Arabidopsis thaliana). As to the kind of experiment: single-molecule dual-colour TIRF microscopy (co-diffusion on microtubules); 1 nM eGFP–POK2^2083–2771 with 0.5 nM MAP65-3–mCherry on unlabelled stabilised microtubules; ionic strength 70–190 mM set with KCl; both purified.

These are yes or no findings as the source states them, for the method shown. Binding can be weak; no strength is given. Sequences can lack the tags named with a protein.

For “eGFP–POK2^2083–2440 (Arabidopsis thaliana) (domain or fragment)”, the binding entry in assay [1] is recorded as “no binding (tested: 20 nM)”.

On to “eGFP–POK2^2083–2771–8×His (Arabidopsis thaliana) (domain or fragment)”, for which the binding result in assay [2] and in assay [1] was “binds” each time. Consider “eGFP–POK2^2510–2677 (Arabidopsis thaliana) (domain or fragment)”, for which, in assay [1], the binding result is reported as “no binding (tested: 20 nM)”.

Consider “eGFP–POK2^2510–2771 (Arabidopsis thaliana) (domain or fragment)”, for which the binding result in assay [1] is on record as “binds”.
